The nature of this data set: in vivo. To be noted: mouse, blood.

Each structure is given as a SMILES string.

Compound `CC1=C(C(=O)O)N2C(=O)[C@@H](NC(=O)[C@H](N)c3ccccc3)[C@H]2SC1` [Cephalexin] yielded an AUC (im, 20 mg/kg, AUC*, Run 1, * mean of 3 runs) of 16000 ng·h/mL; an AUC (po, 20 mg/kg, AUC*, Run 1, * mean of 3 runs) of 14000 ng·h/mL; an AUC (po, 100 mg/kg, AUC, 100 mg/kg, p.o., Run 1 (Cephalexin: * mean of 3 runs)) of 57000 ng·h/mL. The concentration (im, 20 mg/kg, 20 mg/kg, i.m., Run 1 (Cephalexin: * mean of 3 runs)) peaked (Cmax) at 26000 ng/mL; the peak level (po, 20 mg/kg, 20 mg/kg, p.o., Run 1 (Cephalexin: * mean of 3 runs)) (Cmax) was 11000 ng/mL; the Cmax (po, 100 mg/kg, 100 mg/kg, p.o., Run 1 (Cephalexin: * mean of 3 runs)) worked out at 47000 ng/mL.

These data come from patent US4520022A, “Substituted vinyl cephalosporins” (priority 1983, dated 1985).
